# Out of some 330,000 compounds screened, about 7,700 (2.3%) were called active. Inconclusive means that the source gave no clear call. Such entries were picked first, then a sample of the others. The call rests on the fitted dose curve; in most records, active means well fitted inhibition curve with a large enough effect; inconclusive means small, poorly fitted or top-dose-only effect, or effect the other way; inactive means flat fitted curve, though single readings scatter. Where the call is inconclusive, the potency comes from a doubtful curve fit.
# Assay: qHTS screen for small molecules that inhibit ELG1-dependent DNA repair in human embryonic kidney (HEK293T) cells expressing luciferase-tagged ELG1; further: nearly all actives have a fitted effect of over 55% in size
# Settings: HEK293T ELG1-luciferase reporter, luminescence, 16 h, DNA damage induced by 5-fluorouridine; activity change, negative = inhibition: at 46.1 µM (top of the series)
# Method in brief: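 Quantitative HTS, concentration-response format. 2,000 cells/well co-treated with 5-fluorouridine and compound, 16 hr in 5% CO2 at 37 °C; ONE-Glo luminescence read after 30 min.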
# On the % scale 0 is the no-effect control and ±100 the full control effect; potency means the concentration at half of the fitted maximal effect.
SMILES,"activity change, negative = inhibition",Potency
CCOCCCNC(=O)C(c1ccccc1)N(Cc1cccs1)C(=O)c1ccccc1O (stereo not given),inactive: 3.92%,
CC(=O)O/N=C1\C(=O)N(Cc2ccc(C)cc2)c2ccccc21,inactive: -13.8%,
Oc1ccc(C(=S)N2CCCCC2)cc1Cl,inactive: -28.5%,
O=C(OCC(=O)N1CCc2ccccc21)c1ccncc1,inactive: 7.4%,
CCOCCn1c(N2CCN(c3ccccc3)CC2)nc2c1c(=O)[nH]c(=O)n2C,,"inconclusive: 20.6 µM [activator, partial curve]"
Cc1ccc(NC2CCCN(C(=O)c3cc4ncccn4n3)C2)cc1C (stereo not given),,"inconclusive: 32.6 µM [activator, partial curve, poor fit]"
COc1cccc(CNc2ccc3[nH]c(=O)[nH]c3c2)c1OCc1ccc(F)cc1,,"inconclusive: 16.4 µM [inhibitor, partial curve, poor fit]"
COc1ccc2oc(C(=O)OC(C)C(=O)N3C(C)CCCC3C)c(C)c2c1 (stereo not given),,"inconclusive: 20.6 µM [inhibitor, single point]"
O=C(c1ccc2c(=O)n(Cc3ccco3)c(=S)[nH]c2c1)N1CCN(Cc2ccccc2)CC1,inactive: -15%,
CCO[C@@H]1OC(C(=O)N2CCCCCCC2)=C[C@H](c2cn(C(C)=O)c3ccccc23)[C@H]1CCCO,,"inconclusive: 20.6 µM [inhibitor, partial curve, poor fit]"
Cc1cc(C)c(C#N)c(SCc2nnc(-c3ccccc3[N+](=O)[O-])o2)n1,,"inconclusive: 2.59 µM [activator, partial curve]"
COc1ccc(C(=O)C2CCCN(C(=O)CCc3scnc3C)C2)c(C)c1 (stereo not given),,"inconclusive: 1.64 µM [activator, partial curve]"
C/C(=N\NC(=O)COc1ccccc1[N+](=O)[O-])c1cccc(NC(=O)c2ccncc2)c1,,active: 9.2 µM
Cc1ncoc1C(=O)N1CCc2c([nH]c3ccccc23)C1C(C)(C)C (stereo not given),,"inconclusive: 23.1 µM [inhibitor, partial curve, poor fit]"
CCCN1CCN(C2CCCCC2NS(=O)(=O)c2ccc(Cl)cc2)CC1 (stereo not given),,"inconclusive: 20.6 µM [activator, partial curve, poor fit]"
N#CC1=C(SCC(=O)Nc2ccccc2)NC(=O)CC1c1ccc(O)cc1 (stereo not given),,"inconclusive: 10.3 µM [activator, partial curve]"
O=c1oc2ccccc2cc1-c1nnc(-c2cccc(Br)c2)o1,,"inconclusive: 2.59 µM [activator, full curve]"
CCOc1ccc(-n2cc(-c3ccccc3)c3c(=S)nc[nH]c32)cc1,inactive: 16.6%,
O=C(NCc1ccco1)C(=O)NCc1ccccc1Cl,,"inconclusive: 29.1 µM [activator, single point]"
S=C(Nc1ccccc1)Nc1ccc2cn[nH]c2c1,inactive: 24.9%,
COc1ccc2cnn(-c3ccccc3)c(=O)c2c1OC,,"inconclusive: 11.6 µM [activator, partial curve]"
C#CCOCCOCCOCCNc1nc(OC)nc(N2CCN(C(=O)[C@H](CCCCN)n3cc(C(N)CO)nn3)CC2)n1 (stereo not given in full),,"inconclusive: 18.3 µM [activator, partial curve, poor fit]"
CSCc1c(C(=O)Nc2ccc(N3CCOCC3)cc2)oc2ccccc12,inactive: 10.2%,
COc1ccc(CCNC(=O)CS(=O)(=O)Cc2nc(-c3ccc(C)cc3)oc2C)cc1OC,,"inconclusive: 23.1 µM [inhibitor, partial curve]"

# A stretch from further up:
SMILES,"activity change, negative = inhibition",Potency
N#CC1=C(SCC(=O)Nc2ccccc2)NC(=O)CC1c1ccc(O)cc1 (stereo not given),,"inconclusive: 10.3 µM [activator, partial curve]"
O=c1oc2ccccc2cc1-c1nnc(-c2cccc(Br)c2)o1,,"inconclusive: 2.59 µM [activator, full curve]"
CCOc1ccc(-n2cc(-c3ccccc3)c3c(=S)nc[nH]c32)cc1,inactive: 16.6%,

# (continued)

SMILES,"activity change, negative = inhibition",Potency
O=C1CC(C(=O)O)S/C(=N\N=C\c2ccc(Br)cc2)N1 (stereo not given),inactive: 12.2%,
O=S(=O)(Nc1cccc(-c2cn3c(n2)SCC3)c1)c1ccc(F)cc1F,inactive: 0%,
CCc1nn(C(CC)C(=O)NCc2cccc(OC)c2OC)c(=O)c2cc3occc3n12 (stereo not given),,"inconclusive: 14.6 µM [inhibitor, partial curve]"
Cn1c(=O)n(C)c2cc(NC(=O)c3ccccc3NS(C)(=O)=O)ccc21,,"inconclusive: 18.3 µM [activator, single point]"
COc1cccc(/C=N/NC(=O)c2cc(-c3ccccn3)nc3ccccc23)c1O,,"inconclusive: 16.4 µM [inhibitor, single point]"
O=C(NC1CCCCC1)c1ccc(N2CCCC2=O)cc1,,"inconclusive: 20.6 µM [activator, partial curve]"
CCC(=O)NNc1cccc(Cl)n1,inactive: -20.4%,
CSc1nnc(-c2sccc2OCc2ccc(C)cc2)n1C,inactive: 7.21%,
COc1ccc(CNC(=O)c2cc(-c3ccncc3)nc3c(C)cc(C)cc23)cc1OC,,active: 23.1 µM
Cc1ccc(-c2cc(C(F)(F)F)n3nc(C(=O)Nc4ccon4)cc3n2)cc1C,inactive: 1.84%,
COc1ccc(/C=N/N=C2/SCC(=O)N2Cc2ccccc2)cc1,,"inconclusive: 2.59 µM [activator, full curve]"
Fc1ccc(NC(=S)Nc2ccccc2OC(F)F)cc1Cl,,"inconclusive: 25.9 µM [inhibitor, partial curve, poor fit]"
COc1ccc(C(=O)N/C(=C/c2cccc3ccccc23)C(=O)NCCc2c[nH]c3ccccc23)cc1OC,,"inconclusive: 10.3 µM [inhibitor, partial curve]"
CCN(C(=O)CN1CCC(C(=O)OC)CC1)c1c(N)n(Cc2ccccc2)c(=O)[nH]c1=O,,"inconclusive: 13 µM [activator, partial curve, poor fit]"
Cc1ccccc1Nc1scc(-c2ccc(Br)cc2)[n+]1-c1ccccc1C,,"inconclusive: 20.6 µM [inhibitor, single point]"
Cc1[nH]c2ccccc2c1C(=O)COC(=O)Cn1c(C)nc2ccccc21,,"inconclusive: 18.4 µM [inhibitor, partial curve, poor fit]"
COc1ccccc1N1C(=O)[C@@H]2C(C(=O)CN3C(=O)c4ccccc4C3=O)=NN[C@@H]2C1=O,,"inconclusive: 29.1 µM [activator, single point]"
CCOC(=O)[C@@H]1[C@H]2COc3cc(OC)ccc3[C@@H]2N2C(=O)N(c3ccccc3)C(=O)[C@@]12C,,"inconclusive: 7.3 µM [activator, partial curve]"
Cc1ccc(Cl)cc1NC(=O)C(=O)N/N=C/c1ccc2c(c1)OCO2,inactive: 13.4%,
CCN(CC)c1ccc2nc3c4ccccc4c(=O)cc-3oc2c1,,"inconclusive: 1.16 µM [activator, full curve]"
COc1ccc(NC(=O)Nc2ccccc2SC)c(OC)c1,inactive: 5.11%,
O=C(Nc1ccc(Oc2ccccc2)cc1)N[C@@H](Cc1ccccc1)C(=O)O,inactive: 12.5%,
COC(=O)c1c(S(C)(=O)=O)nc(-c2ccccc2)[nH]c1=O,,"inconclusive: 29.1 µM [inhibitor, partial curve, poor fit]"
CCCCOC(=O)c1cc(Cl)c(O)c(OC)c1,,"inconclusive: 29.1 µM [activator, partial curve, poor fit]"

SMILES,"activity change, negative = inhibition",Potency
COc1ccc2c(CC(=O)Nc3ccc(OC)c(NS(=O)(=O)c4ccc(F)cc4)c3)coc2c1,,"inconclusive: 23.1 µM [inhibitor, partial curve, poor fit]"
COc1cc(C(=O)NNC(=O)c2ccc3ccccc3n2)cc(OC)c1OC,,"inconclusive: 29.1 µM [inhibitor, partial curve, poor fit]"
O=C1c2ccccc2[C@@H]2C[C@@H](O)[C@H](Nc3ccccc3-c3ccccc3)CCN12,,"inconclusive: 23.1 µM [inhibitor, partial curve, poor fit]"
Cc1ccc(C(=O)NC(=O)CSc2ncccc2C(=O)O)cc1,inactive: -14.2%,
COc1ccc(C(=O)NNC(=S)NC(=O)c2cc(-c3ccccc3)nc3ccccc23)cc1,inactive: -4.1%,
O=C(NC(=S)Nc1ccc(S(=O)(=O)N2CCCCCC2)cc1)c1cccs1,inactive: 12.7%,
CCNc1nc(CN2CCOCC2)nc2sc3c(c12)CCC3,inactive: 4.23%,
O=C(c1sc2ccccc2c1Cl)N(Cc1ccccc1)C1CCS(=O)(=O)C1 (stereo not given),,"inconclusive: 35.5 µM [inhibitor, single point]"
O=C(C1CC1)N1CCN(c2ccc(O)cc2)CC1,,"inconclusive: 23.1 µM [inhibitor, partial curve]"
S=C(NCCc1ccccc1)Nc1nccs1,inactive: 1.57%,
COc1cccc(CNc2nc3ccccc3n2C(C)C)c1O,inactive: -12.5%,
CCCCNC(=S)NNC(=O)c1cc(C2CC2)nc2ccccc12,inactive: 0.225%,
COc1ccc2cc(CN(C(=O)Nc3ccccc3)C3CCCC3)c(=O)[nH]c2c1,,"inconclusive: 20.6 µM [inhibitor, single point]"
COc1ccc(OC)c(-c2csc(NC(=O)Cc3ccccc3F)n2)c1,,"inconclusive: 18.3 µM [inhibitor, single point]"
O=C(COc1ccc(F)cc1)Nc1nccs1,,"inconclusive: 2.59 µM [activator, full curve]"
C/C(=N\N1CCN(Cc2ccc(Cl)cc2)CC1)c1ccc(F)cc1,,"inconclusive: 25.9 µM [inhibitor, single point]"
CSc1nnc2c(n1)c(C)nn2-c1ccc(C)cc1,,"inconclusive: 29.1 µM [activator, single point]"
CCO[C@@H]1OC(C(=O)N2CCN(Cc3ccc4c(c3)OCO4)CC2)=C[C@H](C)[C@H]1CCCO,inactive: 11%,
COC(=O)c1scc(C)c1NC(=O)c1ccccc1F,inactive: 21.8%,
N#Cc1c(-c2ccccc2)nc(SCC(=O)N(c2ccccc2)c2ccccc2)[nH]c1=O,inactive: 5.52%,
CCOc1ccc(CN2CCNC(=O)C2CC(=O)NCc2cc(C)n(C)n2)cc1 (stereo not given),inactive: 5.82%,
COc1ccc(CCn2c(-c3ccc(OC)cc3)nc3c(c(=O)c4ccccc4n3C)c2=O)cc1,,"inconclusive: 2.31 µM [inhibitor, partial curve]"
